Results: PubChem BioAssay AID504444 (National Center for Advancing Translational Sciences (NCATS), 2011)
The campaign covered roughly 360,000 compounds. About 7,500 (2.1%) were called active. Inconclusive results, whose numbers are uncertain, are shown with a selection of clear calls. Calls follow the shape of the dose curve; as a rule, active = well fitted inhibition curve with a large enough effect; inconclusive = small, poorly fitted or top-dose-only effect, or effect the other way; inactive = flat fitted curve, though single readings scatter. Potencies of inconclusive entries are doubtful fits and often do not repeat.

experiment: Nrf2 qHTS screen for inhibitors; conditions: A549 ARE-Fluc reporter, luciferase luminescence, 18-24 h; activity change, negative = inhibition: at 46 µM (top of the series); also: nearly all actives have a fitted effect of over 60% in size
Method in brief: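 Two sequential reads on A549 ARE_Fluc cells exposed to compound for 18-24 h: a CellTiter-Fluor fluorescence read for viability, then a luciferase luminescence read for Nrf2/ARE activity.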
% is scaled to controls: 0 for no effect and ±100 for the full control effect; potency is read from the fitted curve at half-maximal effect.

| Compound | Potency | activity change, negative = inhibition |
| --- | --- | --- |
| CCC(CC)C(=O)Nc1cccc(C(=O)NCCc2ccccc2)c1 | inconclusive: 18.4 µM [activator, single point] | – |
| CC1=C(C)CC(C(=O)NC(C)CCc2ccccc2)C(C(=O)O)C1 (configuration not stated) | inconclusive: 2.31 µM [falling, partial curve, poor fit] | – |
| CCOC(=O)c1ccc(S(=O)(=O)N2CCN(CCc3ccncc3)CC2)cc1 | inconclusive: 16.4 µM [falling, partial curve, poor fit] | – |
| Cc1ccc(C(=O)N2N=C(c3ccccc3)CC2(O)C(F)(F)F)o1 (configuration not stated) | inconclusive: 9.2 µM [activator, partial curve, poor fit] | – |
| O=C(N/N=C/c1ccccn1)c1cccc(NC(=O)c2ccc(Cl)cc2)c1 | active: 23.1 µM | – |
| COc1ccc(-c2cc(C(=O)c3c(N)n(C)c(=O)n(C)c3=O)c3ccccc3n2)cc1OC | inconclusive: 23.1 µM [activator, single point] | – |
| CC1CCc2nc(NC(=O)C3CCCO3)sc2C1 (configuration not stated) | inconclusive: 1.3 µM [activator, full curve] | – |
| CCOC(=O)C1CCN(c2c(C(=O)c3ccc(C)cc3)cnc3ccc(F)cc23)CC1 | – | inactive: 10.1% |
| O=C(C1CC1)N1CCc2cc(Br)cc(S(=O)(=O)N3CCCCCC3)c21 | inconclusive: 16.4 µM [falling, partial curve] | – |
| O=C(Nc1ccc(Cl)c(Cl)c1)Nc1nnc(CSc2ccccc2)s1 | active: 7.31 µM | – |
| CN1C(=O)C2C=CC1C1C(=O)N(c3ccccc3)C(=O)C21 (configuration not stated) | inconclusive: 5.17 µM [activator, full curve] | – |
| Nc1ccccc1OCCOCCOCCOc1ccccc1N | inconclusive: 11.6 µM [activator, partial curve, poor fit] | – |
| COc1ccc(NC(=O)CN2C(=O)c3ccccc3Sc3ccc(C(=O)N4CCOCC4)cc32)c(OC)c1 | inconclusive: 32.6 µM [falling, single point] | – |
| CCN(CC(=O)Nc1ccc(NC(C)=O)cc1)C(=O)c1cc(-c2ccccc2Cl)nc2ccccc12 | inconclusive: 18.4 µM [falling, single point] | – |
| COc1ccc(C(=O)Nc2cc(C)on2)cc1 | inconclusive: 1.84 µM [activator, partial curve, poor fit] | – |
| NC(=O)C(C(=O)/C=C/c1ccc(Cl)cc1)=C1SCCS1 | inconclusive: 5.8 µM [falling, full curve, poor fit] | – |
| CCOc1cc(NC(=O)c2ccco2)c(OCC)cc1NC(=O)COc1ccccc1 | inconclusive: 10.3 µM [falling, partial curve, poor fit] | – |

Arranged by SMILES length (falling): some entries from above.

| Compound | Potency | activity change, negative = inhibition |
| --- | --- | --- |
| CC1=C(C)CC(C(=O)NC(C)CCc2ccccc2)C(C(=O)O)C1 (configuration not stated) | inconclusive: 2.31 µM [falling, partial curve, poor fit] | – |
| O=C(Nc1ccc(Cl)c(Cl)c1)Nc1nnc(CSc2ccccc2)s1 | active: 7.31 µM | – |
| Nc1ccccc1OCCOCCOCCOc1ccccc1N | inconclusive: 11.6 µM [activator, partial curve, poor fit] | – |
